{"source": "PubChem BioAssay AID1259254 (NCATS, 2017)", "assay": "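Finding genes that stop cells copying their DNA twice in one cycle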 (primary screen)", "cell system": "human HCT116 colorectal cancer cells", "reagents": "single siRNA against human genes", "duration": "3 days", "read-out": "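Imaged Hoechst DNA stain sorts each cell into a cycle phase by DNA amount; per plate, G2 fraction set to 0% for non-targeting and 100% for GMNN siRNA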", "direction": "G2 robust z-score: higher = more G2 cells, more excess DNA replication", "rule for the call": "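Active siRNAs have a G2 robust z of 5 or more median absolute deviations over the median, which in these data means about 38% or higher of GMNN control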", "note": "Shown is an unselected part of about 59,000 reagents. In the full data, about 1,550 (2.6%) got an active call. 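G2 share is only a proxy for re-replication; each gene was hit by three separate siRNAs, and active genes were retested.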 Unmarked entries are inactive. The numbers tell different reagents against one gene apart. Further read-outs or replicates are left out here. The record does not give: the amount of reagent."}
{"gene": "APOL2 (apolipoprotein L2)", "siRNA no.": 1, "G2 robust z-score": 0.965}
{"gene": "APOL2 (apolipoprotein L2)", "siRNA no.": 2, "G2 robust z-score": 3.31}
{"gene": "APOL2 (apolipoprotein L2)", "siRNA no.": 3, "G2 robust z-score": -0.58}
{"gene": "ZNF56P (zinc finger protein 56, pseudogene)", "siRNA no.": 1, "G2 robust z-score": 0.326}
{"gene": "ZNF56P (zinc finger protein 56, pseudogene)", "siRNA no.": 2, "G2 robust z-score": 2.68}
{"gene": "ZNF56P (zinc finger protein 56, pseudogene)", "siRNA no.": 3, "G2 robust z-score": -0.497}
{"gene": "C8orf76 (chromosome 8 open reading frame 76)", "siRNA no.": 1, "G2 robust z-score": -0.535}
{"gene": "C8orf76 (chromosome 8 open reading frame 76)", "siRNA no.": 2, "G2 robust z-score": 1.04}
{"gene": "C8orf76 (chromosome 8 open reading frame 76)", "siRNA no.": 3, "G2 robust z-score": -0.28}
{"gene": "EXOC1L (exocyst complex component 1 like)", "siRNA no.": 1, "G2 robust z-score": -0.0121}
{"gene": "EXOC1L (exocyst complex component 1 like)", "siRNA no.": 2, "G2 robust z-score": 0.255}
{"gene": "EXOC1L (exocyst complex component 1 like)", "siRNA no.": 3, "G2 robust z-score": -0.133}

Look-ups from above.
Entry of C8orf76 (chromosome 8 open reading frame 76) #2 under “G2 robust z-score”: 1.04
Entry for ZNF56P (zinc finger protein 56, pseudogene) #1 in “G2 robust z-score”: 0.326
